Usually AC50 stands for the concentration at which the activity in the assay is half-maximal. Read a high AC50 as activity only at high concentration.

Drawing on PubChem BioAssay AID2685 (National Center for Advancing Translational Sciences (NCATS), 2010), this text covers cell number change and AC50 for 36 compounds.

This is one part of the list. Further columns of the screen follow, without active or inactive calls. Compounds called inactive in the main read-out are mostly missing here. The note in brackets gives the kind of curve behind each potency; many fits are weak.

The assay can be described thus: qHTS Assay for Lipid Storage Modulators in Drosophila S3 Cells.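 For cell number change: cells counted by Cell Tracker Red CMTPX staining in the red channel.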 To be noted: BODIPY lipid droplet fluorescence, 18-24 h; for cell number change: measured here: cell count max response, cells fed with added oleic acid. An outline of the steps:
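Drosophila S3 cells got compounds at several concentrations plus oleic acid (400 uM solution). Laser-scanning cytometry with 488 nm excitation read lipid droplets at 500-530 nm and cells at 575-640 nm. Percent activity was relative to 20 uM Triacsin C.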
In general terms: qHTS replaces the single test concentration by a dilution series.

Where [1] appears, read: measured here: cell number channel AC50, cells fed with added oleic acid.
Where [2] appears, read: measured here: lipid fluorescence (Fed channel) AC50, cells fed with added oleic acid.

As to `CCn1c(O)c(/C=C2\C=Nc3ccccc32)sc1=O`, the cell number change was -8.44%.
On to `CC(=O)Nc1ccc(NC(=O)Nc2cccc(Cl)c2)cc1`, for which the cell number change is 26.2%.
Take `CCNC(=S)N1CCN(c2cccc(C(F)(F)F)c2)CC1`: the cell number change came out at 34%. The AC50 under setting [1] is 6.51 µM [rising, partial curve]. Besides, the AC50 under setting [2] was 9.2 µM [rising, partial curve].
As for `FC(F)(F)c1cccc(-n2cccc2/C=N/n2cnnc2)c1`, the cell number change is -24.7%.
For `CCC(=NCCc1c(C)[nH]c2ccccc12)C1=C(O)CC(c2ccccc2)CC1=O` (centres undefined), the cell number change was -4.08%. Besides, the AC50 under setting [2] was 29.1 µM [falling, single point].
For `c1ccc2[nH]c(CN3CCN(c4ncnc5c4oc4ccccc45)CC3)nc2c1`, the cell number change was -14.1%. Under setting [2], the AC50 is 0.651 µM [rising, full curve, poor fit].
With `CCCCCOc1ccc(/C=C/c2c([N+](=O)[O-])c(=O)n(C)c(=O)n2C)cc1`, the cell number change stood at 0.901%. Moreover, the AC50 under setting [2] is 0.0291 µM [falling, full curve, poor fit].
Regarding `CCOc1ccc(S(=O)(=O)N2CCCC(C(=O)NC3CCCC3)C2)cc1` (centres undefined), the cell number change is -8.29%. For the same compound, the AC50 under setting [2] was 29.1 µM [rising, single point].
As for `Cc1ccc(-c2nn(-c3ccccc3)cc2/C=N/NC(=O)c2ccc3c(c2)OCO3)cc1`, the cell number change was -29.6%. For the same compound, the AC50 under setting [1] was 1.46 µM [falling, full curve, poor fit].
Regarding `Cc1ccc2c(Cl)cc(Cl)c(OCC(=O)Nc3cc(S(=O)(=O)N(C)C)ccc3C)c2n1`, the cell number change is -18%. The AC50 under setting [2] is 29.1 µM [falling, single point].
For `CSC1=NC2(CCCCC2)C2=C(CCCC2)N1`, under setting [2], the AC50 is 1.84 µM [falling, full curve].
For the compound `Cc1ccc(NC(=O)COC(=O)c2ccc(F)cc2Cl)c(Br)c1`, the cell number change was -21.9%. In addition, under setting [2], the AC50 was 6.51 µM [falling, single point].
Consider `CC(OC(=O)Cn1cnc2ccccc2c1=O)C(=O)NCc1ccccc1` (centres undefined), for which the cell number change was -10%.
Regarding `Cc1ccc(N2CC(C(=O)Nc3nnc(C(C)C)s3)CC2=O)cc1` (centres undefined), the cell number change is -3.86%. Moreover, the AC50 under setting [1] was 2.31 µM [falling, partial curve]. Under setting [2], the AC50 was 18.4 µM [falling, single point].
As to `Cc1ccc(C(=O)NCC(=O)OCCOc2ccccc2Cl)cc1`, the cell number change worked out at 47.8%. Moreover, the AC50 under setting [1] is 29.1 µM [rising, single point].
Take `CC(=O)c1cccc(NC(=S)NC(=O)c2ccc(Br)cc2)c1`: the cell number change was determined as 31.5%. Besides, the AC50 under setting [1] is 9.2 µM [rising, partial curve]. Under setting [2], the AC50 was 20.6 µM [rising, single point].
For the compound `O=C(c1cccnc1)C1Cc2ccccc2C1=O` (centres undefined), the cell number change worked out at 4.89%.
Regarding `COCc1cc(C)nc(SCC(=O)Nc2ccccc2C)c1C#N`, the cell number change was determined as 76.7%. In addition, the AC50 under setting [1] was 0.0058 µM [rising, full curve, poor fit]. Besides, the AC50 under setting [2] is 0.0058 µM [rising, full curve, poor fit].
As for `COc1ccc2sc(NC(=O)CC(C)C)nc2c1`, the cell number change is -32.3%. Besides, the AC50 under setting [1] was 10.3 µM [falling, partial curve]. Under setting [2], the AC50 is 2.06 µM [rising, full curve, poor fit].
As to `O=[N+]([O-])c1ccc(N2CCCCC2)c(Cl)c1N1CCCCC1`, the cell number change was -24.5%. Further, under setting [2], the AC50 was 14.6 µM [falling, partial curve, poor fit].
Turning to `COC(=O)c1ccccc1NC(=S)N1CCN(c2ccccc2)CC1`, the cell number change is -30%. The AC50 under setting [1] is 29.1 µM [falling, single point]. Also, the AC50 under setting [2] was 16.4 µM [falling, partial curve, poor fit].
For the compound `Cc1c(C(=O)NCC2COc3ccccc3O2)oc2ccc(S(=O)(=O)N(C)C3CCCCC3)cc12` (centres undefined), the cell number change was 33.2%. Moreover, the AC50 under setting [1] was 1.84 µM [rising, full curve]. Also, under setting [2], the AC50 was 2.91 µM [rising, partial curve].
Regarding `CCOc1ccc(S(=O)(=O)NCCC(=O)N2CCCCCCC2)cc1`, the cell number change is -39%. Moreover, under setting [1], the AC50 is 29.1 µM [falling, single point]. For the same compound, the AC50 under setting [2] is 29.1 µM [falling, single point].
For the compound `CCCCSCCCNC(=O)c1cn(CC)c2ccc(S(=O)(=O)N3CCOCC3)cc2c1=O`, the cell number change was -0.806%. The AC50 under setting [2] is 0.0326 µM [falling, full curve, poor fit].
For `C(#Cc1ccc2c(c1)COc1c3ccccc3nn1-2)c1ccccc1`, the cell number change was -21%. Besides, under setting [2], the AC50 is 18.4 µM [falling, single point].
For `COc1ccc(NC(=O)CCN2CCCCCC2)c(OC)c1`, the cell number change came to 61.1%. Moreover, under setting [1], the AC50 is 29.1 µM [rising, single point]. Under setting [2], the AC50 is 29.1 µM [rising, partial curve, poor fit].
Consider `COc1ccc(-c2nc3cc([N+](=O)[O-])ccc3o2)cc1OC`, for which the cell number change was -16.4%. Also, under setting [1], the AC50 was 0.0651 µM [falling, full curve, poor fit]. Also, the AC50 under setting [2] was 0.82 µM [falling, full curve, poor fit].
On to `O=C(c1ccc(-c2ccccc2)cc1)N1CCC(C(=O)N2CCCC2)CC1`, for which the cell number change was -4.52%. Moreover, the AC50 under setting [2] is 16.4 µM [falling, partial curve, poor fit].
`O=S(=O)(c1ccc(OCC(O)CN2CCN(c3ccccc3O)CC2)cc1)N1CCOCC1` (centres undefined): the cell number change was determined as 8.61%. Further, under setting [2], the AC50 was 5.8 µM [rising, partial curve].
Turning to `O=C(N/N=C/c1cccc([N+](=O)[O-])c1O)C(O)(c1ccccc1)c1ccccc1`, the cell number change is -16.2%.
In the case of `Nc1ccc(S(=O)(=O)c2ccc(N)cc2)cc1`, the cell number change was determined as 4.94%. Further, the concentration at half-maximal activity (AC50) under setting [2] is 4.11 µM [rising, full curve, poor fit].
As for `CC1=CC(c2ccccc2)NC(=S)N1` (centres undefined), the cell number change is 16.3%. For the same compound, the AC50 under setting [1] is 6.51 µM [rising, single point]. Under setting [2], the AC50 was 1.16 µM [rising, single point].
`CCn1c(SCc2nc3ccccc3c(=O)[nH]2)nnc1-c1ccncc1`: the AC50 is 0.291 µM [rising, full curve] under setting [1] and 1.3 µM [rising, full curve] under setting [2].
On to `CCn1c(CSc2n[nH]c(N)n2)nc2cc(C(=O)O)ccc21`, for which the cell number change was -52%. The AC50 under setting [1] is 23.1 µM [falling, single point]. In addition, the AC50 under setting [2] is 20.6 µM [falling, single point].
With `Nc1c2c(nc3ccc(Br)cc13)N(c1ccccc1)CC2`, the cell number change was -57.1%. In addition, the concentration at half-maximal activity (AC50) under setting [1] is 29.1 µM [falling, single point]. The AC50 under setting [2] is 0.651 µM [rising, single point].
As for `Cc1ccccc1-c1nnc(Cc2ccccc2)o1`, the cell number change is 33.1%. Further, the AC50 under setting [1] was 10.3 µM [rising, single point]. The AC50 under setting [2] was 14.6 µM [rising, partial curve].
